This passage reports binding results from article PMC5095787.

For assay [1], the target named is OsGIF1 (GRF-interacting factor 1), yeast two-hybrid fusion (rice). Briefly: two-hybrid; Matchmaker GAL4 system; pGBKT7 and pGADT7 plasmids cotransformed into yeast strain Y2H Gold; grown on SD-Leu-Trp for 3 days at 30 °C, interaction read on SD-Ade-His-Leu-Trp for 2-3 days at 30 °C.
Assay [2] addresses OsGIF1 fused to cYFP for BiFC (rice). In words: split reporter; BiFC: nYFP and cYFP fusions co-expressed in tobacco leaf epidermis cells by Agrobacterium-mediated infiltration; YFP seen by confocal microscopy 72 h after infiltration.

These are yes or no findings as the source states them, for the method shown. Binding can be weak; no strength is given. Tags and fused reporters may be left off the sequences shown. For some assays here: Binding seen in cells or lysates may run through a third protein.

B1: GLW2 (OsGRF4, growth-regulating factor 4), yeast two-hybrid fusion (protein, UniProt Q6ZIK5 1-394)
chain: MAMPYASLSPAVADHRSSPAAATASLLPFCRSTPLSAGGGGVAMGEDAPMTARWPPAAAARLPPFTAAQYEELEQQALIYKYLVAGVPVPPDLVLPIRRGLDSLAARFYNHPALGYGPYFGKKLDPEPGRCRRTDGKKWRCSKEAAPDSKYCERHMHRGRNRSRKPVETQLVAQSQPPSSVVGSAAAPLAAASNGSSFQNHSLYPAIAGSNGGGGGRNMPSSFGSALGSQLHMDNAAPYAAVGGGTGKDLRYTAYGTRSLADEQSQLITEAINTSIENPWRLLPSQNSPFPLSSYSQLGALSDLGQNTPSSLSKVQRQPLSFFGNDYAAVDSVKQENQTLRPFFDEWPKGRDSWSDLADENANLSSFSGTQLSISIPMASSDFSAASSRSTNGD
Turning to B1, the binding result in assay [1] is “binds”.

B2: GLW2 (OsGRF4) fused to nYFP for BiFC (protein, UniProt Q6ZIK5 1-394)
chain: B1 chain
For B2, the binding entry in assay [2] was “binds”.
